Experimental data from article PMC8265170.
These are yes or no findings as the source states them, for the method shown. In cells and extracts the contact can be indirect. Some binding calls cover weakened binding; strength is not graded here.

Amino acid sequences for entries named in this document (tags omitted). Residues count along the entry.
UniProt Q15109, residues 23-404: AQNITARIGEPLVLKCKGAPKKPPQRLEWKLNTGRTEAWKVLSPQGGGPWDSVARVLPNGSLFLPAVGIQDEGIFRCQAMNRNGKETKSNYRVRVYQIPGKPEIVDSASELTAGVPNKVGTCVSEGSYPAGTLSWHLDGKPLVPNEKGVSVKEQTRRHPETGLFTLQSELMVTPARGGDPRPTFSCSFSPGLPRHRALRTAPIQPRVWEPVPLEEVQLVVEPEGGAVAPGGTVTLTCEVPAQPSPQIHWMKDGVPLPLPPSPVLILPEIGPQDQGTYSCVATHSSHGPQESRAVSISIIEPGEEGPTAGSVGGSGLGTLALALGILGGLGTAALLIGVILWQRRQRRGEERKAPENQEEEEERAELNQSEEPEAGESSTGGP

Molecular target: receptor for advanced glycation end-product (RAGE), overexpressed in HUVECs (UniProt Q15109)
Experiment: co-IP; S100A7 protein incubated with RAGE-overexpressing HUVECs, then co-immunoprecipitation; only the binder purified

B1: recombinant human S100A7 protein (ligand, UniProt P31151 1-101)
chain: MSNTQAERSIIGMIDMFHKYTRRDDKIEKPSLLTMMKENFPNFLSACDKKGTNYLADVFEKKDKNEDKKIDFSEFLSLLGDIATDYHKQSHGAAPCSGGSQ
In the case of B1, the binding is reported as “binds”.
